Measurements reported in PubChem BioAssay AID1259254 (NCATS, 2017).
Purpose: 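Gene knock-downs that lead to re-replication, shown by excess G2 DNA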 (primary screen). Cell system: human HCT116 colorectal cancer cells. Knock-down reagent: single siRNA against human genes. Time to read-out: 3 days. Measured: 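Nuclei stained with Hoechst and imaged; cell-cycle phase assigned by DNA content; G2 share scaled per plate, non-targeting siRNA 0%, GMNN siRNA 100%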. Reading the numbers: G2 robust z-score and G2 cells, % of GMNN control: higher = more G2 cells, more excess DNA replication; raw share of cells in G2: higher = larger share of cells with G2 DNA content. Rule for the call: 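An siRNA counts as active if its G2 robust z-score lies at least 5 MADs above the screen median; here such calls match roughly 38% of GMNN control or more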.
In all, the deposit lists about 59,000 reagents; below is a random part of them. Of all reagents, about 1,550 (2.6%) are marked active. 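G2 share is only a proxy for re-replication; each gene was hit by three separate siRNAs, and active genes were retested.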 The raw values are shown without normalisation. Unmarked entries are inactive. Reagents against one gene are numbered here. No sequences are given here. The record does not give: the amount of reagent.

Gene	reagent no.	G2 robust z-score	G2 cells, % of GMNN control	raw share of cells in G2 (%)
NEU3 (neuraminidase 3)	1	-0.632	-1.48	4.4
NEU3 (neuraminidase 3)	2	-0.314	0.757	4.45
NEU3 (neuraminidase 3)	3	-0.115	2.16	3.98
RPL3 (ribosomal protein L3)	1	5.08 (active)	38.7	21.4
RPL3 (ribosomal protein L3)	2	2.3	19.2	11.8
RPL3 (ribosomal protein L3)	3	1.9	16.3	9.25
RPS28P3 (ribosomal protein S28 pseudogene 3)	1	0.0221	3.12	4.83
RPS28P3 (ribosomal protein S28 pseudogene 3)	2	0.146	4	4.71
RPS28P3 (ribosomal protein S28 pseudogene 3)	3	-0.875	-3.19	2.22
ELOVL3 (ELOVL fatty acid elongase 3)	1	-0.0434	2.66	5.16
ELOVL3 (ELOVL fatty acid elongase 3)	2	1.19	11.3	8.98
ELOVL3 (ELOVL fatty acid elongase 3)	3	-0.949	-3.71	3.89
SLC6A2	1	5.63 (active)	42.6	20
SLC6A2	2	2.28	19	11.1
SLC6A2	3	-0.801	-2.67	3.07
TNFRSF10A-DT (TNFRSF10A divergent transcript)	1	-0.513	-0.642	3.55
TNFRSF10A-DT (TNFRSF10A divergent transcript)	2	0.338	5.35	5.73
TNFRSF10A-DT (TNFRSF10A divergent transcript)	3	-0.334	0.617	4.9
LYPLAL1-DT (LYPLAL1 divergent transcript)	1	0.329	5.29	4.69
LYPLAL1-DT (LYPLAL1 divergent transcript)	2	0.671	7.69	6.56
LYPLAL1-DT (LYPLAL1 divergent transcript)	3	-0.496	-0.523	3.08
KCND1 (potassium voltage-gated channel subfamily D member 1)	1	0.589	7.11	7.88
KCND1 (potassium voltage-gated channel subfamily D member 1)	2	-0.412	0.0705	4.81
KCND1 (potassium voltage-gated channel subfamily D member 1)	3	-1.13	-5.01	2.42
RAC3 (Rac family small GTPase 3)	1	3.87	30.2	15.4
RAC3 (Rac family small GTPase 3)	2	-0.236	1.31	4.58
RAC3 (Rac family small GTPase 3)	3	-0.284	0.966	5.05
PEDS1 (plasmanylethanolamine desaturase 1)	1	0.0337	3.2	4.87
PEDS1 (plasmanylethanolamine desaturase 1)	2	0.791	8.53	7.12
PEDS1 (plasmanylethanolamine desaturase 1)	3	1.05	10.4	9.08
PGM2L1 (phosphoglucomutase 2 like 1)	1	-0.365	0.401	3.79
PGM2L1 (phosphoglucomutase 2 like 1)	2	1.75	15.3	8.96
PGM2L1 (phosphoglucomutase 2 like 1)	3	-0.279	1.01	3.57
KIF21A (kinesin family member 21A)	1	0.37	5.57	6.66
KIF21A (kinesin family member 21A)	2	-1.13	-4.95	2.67
KIF21A (kinesin family member 21A)	3	-0.326	0.676	6.73
SRPX (sushi repeat containing protein X-linked)	1	-0.141	1.97	6.01
SRPX (sushi repeat containing protein X-linked)	2	1.18	11.3	8.37
SRPX (sushi repeat containing protein X-linked)	3	0.13	3.88	4.72
B4GALNT3 (beta-1,4-N-acetyl-galactosaminyltransferase 3)	1	-0.741	-2.25	4.93
B4GALNT3 (beta-1,4-N-acetyl-galactosaminyltransferase 3)	2	0.36	5.5	7.11
B4GALNT3 (beta-1,4-N-acetyl-galactosaminyltransferase 3)	3	3.92	30.5	15.4
PDE4D (phosphodiesterase 4D)	1	-1.25	-5.86	2.54
PDE4D (phosphodiesterase 4D)	2	0.854	8.98	7.71
PDE4D (phosphodiesterase 4D)	3	-0.276	1.03	3.81
PDE4D (phosphodiesterase 4D)	4	-0.346	0.533	3.46
PDE4D (phosphodiesterase 4D)	5	1.78	15.5	7.66
PDE4D (phosphodiesterase 4D)	6	-0.68	-1.82	2.95
PDE4D (phosphodiesterase 4D)	7	-0.356	0.465	3.53
PDE4D (phosphodiesterase 4D)	8	0.704	7.92	6.09
PDE4D (phosphodiesterase 4D)	9	-0.0472	2.64	3.56
CLEC5A (C-type lectin domain containing 5A)	1	0.124	3.84	5.25
CLEC5A (C-type lectin domain containing 5A)	2	1.64	14.5	9
CLEC5A (C-type lectin domain containing 5A)	3	-0.817	-2.78	4.9
RPS6KB2 (ribosomal protein S6 kinase B2)	1	-0.209	1.5	6.1
RPS6KB2 (ribosomal protein S6 kinase B2)	2	0.221	4.52	6.93
RPS6KB2 (ribosomal protein S6 kinase B2)	3	-0.41	0.0832	4.05
RAD9B (RAD9 checkpoint clamp component B)	1	-0.723	-2.12	3.81
RAD9B (RAD9 checkpoint clamp component B)	2	0.35	5.43	8.55
RAD9B (RAD9 checkpoint clamp component B)	3	-1.11	-4.82	2.94
SPDYE5 (speedy/RINGO cell cycle regulator family member E5)	1	0.615	7.29	6.18
SPDYE5 (speedy/RINGO cell cycle regulator family member E5)	2	0.36	5.5	4.99
SPDYE5 (speedy/RINGO cell cycle regulator family member E5)	3	-0.605	-1.29	3.12
SLITRK1 (SLIT and NTRK like family member 1)	1	0.722	8.05	7.52
SLITRK1 (SLIT and NTRK like family member 1)	2	-0.299	0.866	5.34
SLITRK1 (SLIT and NTRK like family member 1)	3	1.94	16.6	13.4
GPR119 (G protein-coupled receptor 119)	1	-1.21	-5.55	3.86
GPR119 (G protein-coupled receptor 119)	2	0.12	3.81	5.85
GPR119 (G protein-coupled receptor 119)	3	0.314	5.18	4.86

Sorted by “G2 cells, % of GMNN control” (descending): 11 of the entries above.
Gene	reagent no.	G2 robust z-score	G2 cells, % of GMNN control	raw share of cells in G2 (%)
SLITRK1 (SLIT and NTRK like family member 1)	3	1.94	16.6	13.4
SLITRK1 (SLIT and NTRK like family member 1)	1	0.722	8.05	7.52
SPDYE5 (speedy/RINGO cell cycle regulator family member E5)	1	0.615	7.29	6.18
SPDYE5 (speedy/RINGO cell cycle regulator family member E5)	2	0.36	5.5	4.99
RAD9B (RAD9 checkpoint clamp component B)	2	0.35	5.43	8.55
GPR119 (G protein-coupled receptor 119)	3	0.314	5.18	4.86
GPR119 (G protein-coupled receptor 119)	2	0.12	3.81	5.85
SLITRK1 (SLIT and NTRK like family member 1)	2	-0.299	0.866	5.34
SPDYE5 (speedy/RINGO cell cycle regulator family member E5)	3	-0.605	-1.29	3.12
RAD9B (RAD9 checkpoint clamp component B)	3	-1.11	-4.82	2.94
GPR119 (G protein-coupled receptor 119)	1	-1.21	-5.55	3.86
